Assay results: PMC13534476, “The Arabidopsis SPFH protein HIR2 modulates receptor signaling and plasma membrane organization” (The EMBO Journal, 2026)

Chains of the proteins cited; added tags and fusions are not shown. Lines headed by an entry give the natural chain unless they say otherwise; changes in a name come on top. Residues count along the entry.
UniProt Q9SRH6: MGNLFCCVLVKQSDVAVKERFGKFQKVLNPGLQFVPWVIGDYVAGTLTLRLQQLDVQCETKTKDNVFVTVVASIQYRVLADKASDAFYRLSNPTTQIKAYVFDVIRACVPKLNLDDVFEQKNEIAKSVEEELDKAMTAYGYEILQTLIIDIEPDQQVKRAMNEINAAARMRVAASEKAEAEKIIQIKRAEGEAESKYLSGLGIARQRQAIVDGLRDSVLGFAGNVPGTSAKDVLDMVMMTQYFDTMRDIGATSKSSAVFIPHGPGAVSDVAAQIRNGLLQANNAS
UniProt O22476, residues 24-1196: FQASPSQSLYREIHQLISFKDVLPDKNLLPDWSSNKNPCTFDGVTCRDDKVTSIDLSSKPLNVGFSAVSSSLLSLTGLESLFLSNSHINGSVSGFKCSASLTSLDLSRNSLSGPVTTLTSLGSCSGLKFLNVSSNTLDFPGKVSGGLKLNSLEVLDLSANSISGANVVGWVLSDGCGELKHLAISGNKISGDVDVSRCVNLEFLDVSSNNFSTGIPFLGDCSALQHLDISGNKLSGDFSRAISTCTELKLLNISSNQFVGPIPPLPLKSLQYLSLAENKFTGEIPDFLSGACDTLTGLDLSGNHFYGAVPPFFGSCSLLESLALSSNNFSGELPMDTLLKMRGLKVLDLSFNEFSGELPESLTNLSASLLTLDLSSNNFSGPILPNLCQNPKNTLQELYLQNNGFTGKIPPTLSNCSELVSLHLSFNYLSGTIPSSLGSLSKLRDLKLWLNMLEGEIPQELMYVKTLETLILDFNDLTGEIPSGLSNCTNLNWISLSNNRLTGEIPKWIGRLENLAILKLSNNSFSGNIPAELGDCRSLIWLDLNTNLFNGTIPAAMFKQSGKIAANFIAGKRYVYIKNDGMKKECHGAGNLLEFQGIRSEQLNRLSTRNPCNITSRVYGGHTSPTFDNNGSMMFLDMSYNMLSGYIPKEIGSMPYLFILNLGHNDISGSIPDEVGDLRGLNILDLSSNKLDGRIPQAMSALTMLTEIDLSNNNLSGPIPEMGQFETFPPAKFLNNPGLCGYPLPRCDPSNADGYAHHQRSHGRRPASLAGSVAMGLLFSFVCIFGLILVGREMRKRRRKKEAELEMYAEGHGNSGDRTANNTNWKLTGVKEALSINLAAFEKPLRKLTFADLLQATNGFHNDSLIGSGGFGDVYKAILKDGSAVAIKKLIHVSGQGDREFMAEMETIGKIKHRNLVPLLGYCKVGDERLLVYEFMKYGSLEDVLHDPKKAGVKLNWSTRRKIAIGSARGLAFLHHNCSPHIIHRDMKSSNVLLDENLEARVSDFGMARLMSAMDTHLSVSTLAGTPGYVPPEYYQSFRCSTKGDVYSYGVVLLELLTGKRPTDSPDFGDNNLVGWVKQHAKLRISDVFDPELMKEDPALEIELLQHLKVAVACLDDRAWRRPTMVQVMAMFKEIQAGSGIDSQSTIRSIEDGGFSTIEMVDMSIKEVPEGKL

T1: BAK1-GFP (Arabidopsis thaliana) (UniProt Q94F62)
T1 sequence: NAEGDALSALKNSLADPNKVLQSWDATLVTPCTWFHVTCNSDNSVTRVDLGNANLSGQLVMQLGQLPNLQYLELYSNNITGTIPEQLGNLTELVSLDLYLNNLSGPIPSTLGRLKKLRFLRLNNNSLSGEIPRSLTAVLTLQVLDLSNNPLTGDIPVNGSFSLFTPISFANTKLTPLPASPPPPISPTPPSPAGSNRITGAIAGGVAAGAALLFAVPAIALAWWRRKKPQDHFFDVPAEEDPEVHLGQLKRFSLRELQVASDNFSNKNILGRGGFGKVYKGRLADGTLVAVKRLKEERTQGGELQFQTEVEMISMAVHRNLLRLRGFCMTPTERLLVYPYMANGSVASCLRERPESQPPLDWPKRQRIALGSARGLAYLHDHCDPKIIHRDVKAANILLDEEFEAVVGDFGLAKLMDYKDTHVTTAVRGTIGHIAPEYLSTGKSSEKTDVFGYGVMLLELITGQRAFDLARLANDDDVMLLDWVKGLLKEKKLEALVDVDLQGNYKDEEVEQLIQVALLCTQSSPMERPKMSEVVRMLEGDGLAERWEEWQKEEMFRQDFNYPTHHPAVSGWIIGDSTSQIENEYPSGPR

T2: BIR2-Cub-PLV (Arabidopsis thaliana) (UniProt Q9LSI9)
T2 sequence: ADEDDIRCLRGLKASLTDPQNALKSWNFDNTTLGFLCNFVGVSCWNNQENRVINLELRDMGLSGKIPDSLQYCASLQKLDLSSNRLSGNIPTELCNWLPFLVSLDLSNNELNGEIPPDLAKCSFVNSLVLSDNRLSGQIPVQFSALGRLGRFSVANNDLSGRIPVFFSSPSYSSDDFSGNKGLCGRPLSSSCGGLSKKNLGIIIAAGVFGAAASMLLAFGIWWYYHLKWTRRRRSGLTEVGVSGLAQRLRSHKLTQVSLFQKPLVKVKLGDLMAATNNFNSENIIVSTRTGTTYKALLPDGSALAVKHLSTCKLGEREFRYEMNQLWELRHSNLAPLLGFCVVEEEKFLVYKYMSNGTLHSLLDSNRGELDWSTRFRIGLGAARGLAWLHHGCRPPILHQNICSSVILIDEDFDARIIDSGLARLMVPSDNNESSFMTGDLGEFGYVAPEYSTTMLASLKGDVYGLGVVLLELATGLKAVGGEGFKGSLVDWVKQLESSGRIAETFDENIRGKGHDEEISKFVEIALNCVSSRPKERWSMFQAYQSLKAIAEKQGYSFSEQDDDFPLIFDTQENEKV

B1: BAK1-Nub-3xHA (receptor, UniProt Q94F62 26-615)
chain: T1 sequence
B2: CERK1 (split-ubiquitin fusion) (receptor, UniProt A8R7E6 24-617)
chain: KCRTSCPLALASYYLENGTTLSVINQNLNSSIAPYDQINFDPILRYNSNIKDKDRIQMGSRVLVPFPCECQPGDFLGHNFSYSVRQEDTYERVAISNYANLTTMESLQARNPFPATNIPLSATLNVLVNCSCGDESVSKDFGLFVTYPLRPEDSLSSIARSSGVSADILQRYNPGVNFNSGNGIVYVPGRDPNGAFPPFKSSKQDGVGAGVIAGIVIGVIVALLLILFIVYYAYRKNKSKGDSFSSSIPLSTKADHASSTSLQSGGLGGAGVSPGIAAISVDKSVEFSLEELAKATDNFNLSFKIGQGGFGAVYYAELRGEKAAIKKMDMEASKQFLAELKVLTRVHHVNLVRLIGYCVEGSLFLVYEYVENGNLGQHLHGSGREPLPWTKRVQIALDSARGLEYIHEHTVPVYVHRDIKSANILIDQKFRAKVADFGLTKLTEVGGSATRGAMGTFGYMAPETVYGEVSAKVDVYAFGVVLYELISAKGAVVKMTEAVGEFRGLVGVFEESFKETDKEEALRKIIDPRLGDSYPFDSVYKMAELGKACTQENAQLRPSMRYIVVALSTLFSSTGNWDVGNFQNEDLVSLMSGR

Tests used:
[1] = molecular target: HIR2-Cub-PLV (Arabidopsis thaliana) (UniProt Q9SRH6); test: two-hybrid; mating-based split-ubiquitin system (mbSUS) in yeast
[2] = molecular target: T1, BAK1-GFP (Arabidopsis thaliana); test: co-IP; Arabidopsis Col-0 mesophyll protoplasts co-transfected with BAK1-GFP or BIR3-GFP and HIR2-HA; free GFP as negative control; GFP-trap beads
[3] = molecular target: T2, BIR2-Cub-PLV (Arabidopsis thaliana); test: two-hybrid; mating-based split-ubiquitin system (mbSUS) in yeast

Molecule | binding [1] | also measured
BRI1-Nub-3xHA (from UniProt O22476 24-1196) (receptor) | no binding | –
HIR2-HA (Arabidopsis protoplasts) (from UniProt Q9SRH6) | – | binding [2]: binds
HIR2-Nub-3xHA (from UniProt Q9SRH6) | – | binding [3]: binds
B1 | binds | –
B2 | binds | –

Results are given in words; binding and its absence hold for the method and conditions named. Binding can be weak; no strength is given. For some assays here: Tags and fused reporters may be left off the sequences shown. For some assays here: In cells and extracts the contact can be indirect.
